From patent US12637428B2, “Isoquinoline derivatives as SIK2 inhibitors” (Cancer Research Technology Limited, priority 2019, dated 2026)
Structures were worked out from names or drawings and are uncertain.

Amino acid sequences for entries named in this document (tags omitted). Residues count along the entry.
UniProt Q9H0K1, whole entry: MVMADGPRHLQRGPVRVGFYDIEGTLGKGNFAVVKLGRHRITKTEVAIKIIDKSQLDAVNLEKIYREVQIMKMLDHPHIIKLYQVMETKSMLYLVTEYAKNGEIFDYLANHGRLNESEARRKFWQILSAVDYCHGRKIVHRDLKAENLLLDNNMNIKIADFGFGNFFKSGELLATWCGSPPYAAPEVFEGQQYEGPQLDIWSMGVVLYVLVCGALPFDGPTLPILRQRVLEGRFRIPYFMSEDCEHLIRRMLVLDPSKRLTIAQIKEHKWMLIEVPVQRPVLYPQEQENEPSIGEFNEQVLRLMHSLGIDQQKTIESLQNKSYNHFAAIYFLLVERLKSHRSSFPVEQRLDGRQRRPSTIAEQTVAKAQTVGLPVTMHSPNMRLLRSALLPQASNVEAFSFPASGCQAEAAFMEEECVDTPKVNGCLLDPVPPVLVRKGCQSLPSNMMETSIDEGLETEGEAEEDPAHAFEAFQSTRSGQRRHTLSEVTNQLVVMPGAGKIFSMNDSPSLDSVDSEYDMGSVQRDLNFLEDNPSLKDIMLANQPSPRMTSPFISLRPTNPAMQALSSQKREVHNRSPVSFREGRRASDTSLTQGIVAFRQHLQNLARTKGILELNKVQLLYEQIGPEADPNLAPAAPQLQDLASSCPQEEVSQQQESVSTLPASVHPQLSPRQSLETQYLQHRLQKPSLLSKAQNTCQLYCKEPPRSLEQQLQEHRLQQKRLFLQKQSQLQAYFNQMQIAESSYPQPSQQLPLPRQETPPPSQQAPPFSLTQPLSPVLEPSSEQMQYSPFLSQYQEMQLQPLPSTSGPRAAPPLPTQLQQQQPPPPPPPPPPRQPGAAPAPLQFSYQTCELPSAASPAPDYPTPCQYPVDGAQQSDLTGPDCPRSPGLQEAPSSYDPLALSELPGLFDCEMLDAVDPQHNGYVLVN
UniProt P57059, whole entry: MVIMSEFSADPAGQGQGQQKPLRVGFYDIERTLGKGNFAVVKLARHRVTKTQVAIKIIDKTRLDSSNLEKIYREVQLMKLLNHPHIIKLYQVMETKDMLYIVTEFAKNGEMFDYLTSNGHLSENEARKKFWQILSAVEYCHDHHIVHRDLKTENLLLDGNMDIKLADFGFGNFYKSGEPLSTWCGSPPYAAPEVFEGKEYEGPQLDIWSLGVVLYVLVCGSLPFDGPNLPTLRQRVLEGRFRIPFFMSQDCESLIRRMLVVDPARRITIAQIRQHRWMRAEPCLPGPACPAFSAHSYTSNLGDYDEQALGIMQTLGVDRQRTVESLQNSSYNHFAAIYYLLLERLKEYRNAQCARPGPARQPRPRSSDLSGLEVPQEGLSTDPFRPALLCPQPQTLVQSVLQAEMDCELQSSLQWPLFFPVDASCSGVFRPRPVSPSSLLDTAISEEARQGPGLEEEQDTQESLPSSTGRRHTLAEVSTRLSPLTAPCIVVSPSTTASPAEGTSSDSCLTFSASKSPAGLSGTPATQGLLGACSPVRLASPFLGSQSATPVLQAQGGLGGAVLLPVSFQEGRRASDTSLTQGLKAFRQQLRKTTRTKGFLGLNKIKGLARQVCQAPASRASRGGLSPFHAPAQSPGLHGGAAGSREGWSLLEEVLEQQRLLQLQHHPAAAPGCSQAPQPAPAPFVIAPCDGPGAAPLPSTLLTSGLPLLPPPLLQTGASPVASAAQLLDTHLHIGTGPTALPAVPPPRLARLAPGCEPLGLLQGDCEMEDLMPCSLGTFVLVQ
UniProt Q9Y2K2, whole entry: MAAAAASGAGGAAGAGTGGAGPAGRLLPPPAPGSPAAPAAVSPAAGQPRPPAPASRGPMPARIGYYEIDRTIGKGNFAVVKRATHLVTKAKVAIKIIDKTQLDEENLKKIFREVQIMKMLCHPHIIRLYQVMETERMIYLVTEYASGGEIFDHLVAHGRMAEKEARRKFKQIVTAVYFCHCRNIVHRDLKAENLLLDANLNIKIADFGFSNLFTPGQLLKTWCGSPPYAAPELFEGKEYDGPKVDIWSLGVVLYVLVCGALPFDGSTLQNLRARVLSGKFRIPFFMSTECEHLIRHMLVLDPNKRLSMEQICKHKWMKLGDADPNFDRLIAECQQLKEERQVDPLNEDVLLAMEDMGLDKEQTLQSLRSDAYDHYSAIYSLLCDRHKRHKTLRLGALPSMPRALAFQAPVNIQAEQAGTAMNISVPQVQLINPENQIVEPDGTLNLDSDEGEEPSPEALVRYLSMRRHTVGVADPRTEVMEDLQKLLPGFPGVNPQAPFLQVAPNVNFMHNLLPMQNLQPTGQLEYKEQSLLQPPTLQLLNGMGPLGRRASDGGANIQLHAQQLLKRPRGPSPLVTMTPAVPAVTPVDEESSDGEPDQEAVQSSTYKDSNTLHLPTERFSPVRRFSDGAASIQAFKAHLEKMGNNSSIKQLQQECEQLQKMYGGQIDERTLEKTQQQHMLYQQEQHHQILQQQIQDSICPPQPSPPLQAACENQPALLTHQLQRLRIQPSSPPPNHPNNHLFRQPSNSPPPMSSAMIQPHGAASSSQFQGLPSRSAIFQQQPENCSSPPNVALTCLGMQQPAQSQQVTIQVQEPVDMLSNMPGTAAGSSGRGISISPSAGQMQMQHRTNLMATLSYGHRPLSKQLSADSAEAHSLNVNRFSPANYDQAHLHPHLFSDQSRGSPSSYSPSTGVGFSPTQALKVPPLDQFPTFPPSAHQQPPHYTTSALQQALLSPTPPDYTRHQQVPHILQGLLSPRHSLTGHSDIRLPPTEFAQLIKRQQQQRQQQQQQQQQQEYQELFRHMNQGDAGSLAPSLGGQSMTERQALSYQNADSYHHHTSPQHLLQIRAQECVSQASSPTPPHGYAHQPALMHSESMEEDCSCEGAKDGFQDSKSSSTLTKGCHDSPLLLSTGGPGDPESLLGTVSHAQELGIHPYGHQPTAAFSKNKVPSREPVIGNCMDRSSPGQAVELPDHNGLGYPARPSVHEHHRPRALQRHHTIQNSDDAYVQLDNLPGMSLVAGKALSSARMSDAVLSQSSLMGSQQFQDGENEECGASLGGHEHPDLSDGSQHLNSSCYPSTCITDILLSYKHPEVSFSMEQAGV
UniProt P00519, whole entry: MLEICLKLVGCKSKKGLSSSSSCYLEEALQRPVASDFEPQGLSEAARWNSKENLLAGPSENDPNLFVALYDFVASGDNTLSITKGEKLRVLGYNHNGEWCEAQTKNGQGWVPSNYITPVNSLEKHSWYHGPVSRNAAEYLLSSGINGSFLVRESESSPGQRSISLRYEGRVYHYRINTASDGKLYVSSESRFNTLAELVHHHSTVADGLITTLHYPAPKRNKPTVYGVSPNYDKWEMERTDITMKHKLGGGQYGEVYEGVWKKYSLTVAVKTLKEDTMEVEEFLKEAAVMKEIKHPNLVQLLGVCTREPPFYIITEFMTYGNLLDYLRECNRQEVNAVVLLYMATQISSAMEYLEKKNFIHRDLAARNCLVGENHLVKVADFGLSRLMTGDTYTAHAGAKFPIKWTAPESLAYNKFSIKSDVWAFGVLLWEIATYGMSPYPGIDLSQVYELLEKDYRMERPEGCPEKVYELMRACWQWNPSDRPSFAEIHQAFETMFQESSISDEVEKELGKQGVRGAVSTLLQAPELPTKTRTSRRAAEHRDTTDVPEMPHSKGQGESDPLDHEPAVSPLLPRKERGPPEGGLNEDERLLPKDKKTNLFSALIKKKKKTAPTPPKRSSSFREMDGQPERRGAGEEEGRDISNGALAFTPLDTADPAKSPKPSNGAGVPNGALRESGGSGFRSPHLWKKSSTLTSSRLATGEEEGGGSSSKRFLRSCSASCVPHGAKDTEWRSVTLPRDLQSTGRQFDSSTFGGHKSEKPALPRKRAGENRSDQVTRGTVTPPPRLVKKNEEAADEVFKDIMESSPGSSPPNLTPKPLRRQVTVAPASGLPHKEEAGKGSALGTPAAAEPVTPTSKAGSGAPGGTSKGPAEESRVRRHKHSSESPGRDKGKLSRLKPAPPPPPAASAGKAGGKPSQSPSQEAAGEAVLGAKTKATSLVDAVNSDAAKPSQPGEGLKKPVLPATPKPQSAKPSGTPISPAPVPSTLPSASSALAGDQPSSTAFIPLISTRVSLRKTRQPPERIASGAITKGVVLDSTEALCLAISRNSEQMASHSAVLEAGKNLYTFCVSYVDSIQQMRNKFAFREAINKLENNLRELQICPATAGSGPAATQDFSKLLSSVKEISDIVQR
UniProt P12931, whole entry: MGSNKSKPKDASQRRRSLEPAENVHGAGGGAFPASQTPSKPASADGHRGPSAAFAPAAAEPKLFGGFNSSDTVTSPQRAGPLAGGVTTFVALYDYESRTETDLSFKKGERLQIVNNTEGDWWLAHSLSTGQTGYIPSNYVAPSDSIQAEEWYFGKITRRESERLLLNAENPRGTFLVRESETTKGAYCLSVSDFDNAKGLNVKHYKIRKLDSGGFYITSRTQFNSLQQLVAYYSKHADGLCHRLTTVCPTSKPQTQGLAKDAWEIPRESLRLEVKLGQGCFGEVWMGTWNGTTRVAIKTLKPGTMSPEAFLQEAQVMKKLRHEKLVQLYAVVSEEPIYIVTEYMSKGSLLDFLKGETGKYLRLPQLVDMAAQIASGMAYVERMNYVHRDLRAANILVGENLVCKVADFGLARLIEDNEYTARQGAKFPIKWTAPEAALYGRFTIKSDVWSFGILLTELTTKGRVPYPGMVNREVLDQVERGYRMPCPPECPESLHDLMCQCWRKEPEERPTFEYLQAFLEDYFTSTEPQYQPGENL
UniProt P29317, 24-976 limits assumed: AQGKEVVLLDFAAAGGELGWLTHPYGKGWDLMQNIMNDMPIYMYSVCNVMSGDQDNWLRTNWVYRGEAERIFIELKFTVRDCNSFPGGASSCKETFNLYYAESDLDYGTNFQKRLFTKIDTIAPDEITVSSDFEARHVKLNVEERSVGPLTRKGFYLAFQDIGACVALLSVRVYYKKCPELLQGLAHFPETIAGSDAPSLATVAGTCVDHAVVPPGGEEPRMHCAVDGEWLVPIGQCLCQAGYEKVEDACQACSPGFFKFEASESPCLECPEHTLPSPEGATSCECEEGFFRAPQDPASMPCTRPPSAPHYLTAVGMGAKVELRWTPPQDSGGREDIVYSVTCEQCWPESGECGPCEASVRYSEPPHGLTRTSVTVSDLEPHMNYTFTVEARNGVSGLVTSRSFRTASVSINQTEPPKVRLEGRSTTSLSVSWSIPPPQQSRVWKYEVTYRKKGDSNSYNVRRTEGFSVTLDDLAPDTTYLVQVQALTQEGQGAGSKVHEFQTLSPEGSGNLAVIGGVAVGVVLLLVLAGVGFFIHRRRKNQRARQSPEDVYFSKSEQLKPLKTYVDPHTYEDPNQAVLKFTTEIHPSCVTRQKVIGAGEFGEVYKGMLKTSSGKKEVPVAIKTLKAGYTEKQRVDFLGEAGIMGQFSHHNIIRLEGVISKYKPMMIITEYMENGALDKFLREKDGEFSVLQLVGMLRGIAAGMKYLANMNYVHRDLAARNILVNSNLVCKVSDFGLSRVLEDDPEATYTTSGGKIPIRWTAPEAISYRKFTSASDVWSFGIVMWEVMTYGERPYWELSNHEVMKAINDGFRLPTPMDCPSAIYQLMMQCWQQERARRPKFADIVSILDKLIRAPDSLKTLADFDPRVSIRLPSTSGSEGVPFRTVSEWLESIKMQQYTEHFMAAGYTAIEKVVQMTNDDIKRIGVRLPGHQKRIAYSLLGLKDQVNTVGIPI

Tests used:
SIK2 = SIK2 (Homo sapiens, UniProt Q9H0K1); experiment: SIK2 kinase assay, IMAP fluorescence polarization; settings: read-out: SIK2 - AVERAGE Ki, 50 or 100 μM ATP
Procedure: (§1) SIK2, SIK1, SIK3, Abl, Src and EPHA2 Kinase Assays
(§2) SIK2, SIK1, SIK3, Abl, Src and EPHA2 assays were performed using an IMAP fluorescence polarization assay format (Molecular Devices Inc.). 0.6-13 nM of each kinase (Life Technologies) was incubated for 60 min at room temperature with 100 nM of either FAM-Abltide, FAM-Srctide or FAM-HDAC protein derived peptide (synthesized by Alta Biosciences, Birmingham UK). Assays were carried out in the presence of 50 or 100 μM ATP in either 20 mM Tris buffer (pH 7.2) containing 4 mM MgCl2, 0.2% BSA and 2 mM DTT (SIK2, SIK1, SIK3, Abl, Src); or 20 mM Tris buffer (pH 8.5) containing 20 mM MgCl2, 0.5% BSA, 0.2% Triton and 5 mM DTT (EPHA2). Typically, dose response analyses were performed over concentration ranges from 0.00005-1 μM. Reactions were stopped by adding 2 assay volumes of 0.25% (v/v) IMAP binding reagent in either an 85:15 ratio (SIK2, SIK1, SIK3, Abl, EPHA2) or 30:70 ratio (Src) of IMAP binding buffers A and B (Molecular Devices). After incubation to allow the detection reagents to bind to the phosphorylated peptide, fluorescence polarization was measured on a Tecan Infinite plate reader at excitation (470 nm) and emission (530 nm) wavelengths. Inhibition was calculated using no inhibitor and no enzyme controls as 0 and 100% inhibition, respectively. […]

SIK1 = SIK1 (Homo sapiens, UniProt P57059); experiment: SIK1 kinase assay, IMAP fluorescence polarization; settings: read-out: SIK1 - AVERAGE Ki, 50 or 100 μM ATP
Procedure: as §1, §2

SIK3 = SIK3 (Homo sapiens, UniProt Q9Y2K2); experiment: SIK3 kinase assay, IMAP fluorescence polarization; settings: read-out: SIK3 - AVERAGE Ki, 50 or 100 μM ATP
Procedure: as §1, §2

Abl = Abl (Homo sapiens, UniProt P00519); experiment: Abl kinase assay, IMAP fluorescence polarization; settings: read-out: Abl - AVERAGE Ki, 50 or 100 μM ATP
Procedure: as §1, §2

Src = Src (Homo sapiens, UniProt P12931); experiment: Src kinase assay, IMAP fluorescence polarization; settings: read-out: Src - AVERAGE Ki, 50 or 100 μM ATP
Procedure: as §1, §2

EPHA2 = EPHA2 (Homo sapiens, UniProt P29317); experiment: EPHA2 kinase assay, IMAP fluorescence polarization; settings: read-out: EPHA2 - AVERAGE Ki, 50 or 100 μM ATP, Tris pH 8.5
Procedure: as §1, §2

## Cc1cccc(F)c1-c1cc(NC[C@H]2CCCCN2)c2cc(N)ncc2c1
SIK2
  Ki: 0.376 nM
SIK1
  Ki: 1.74 nM
SIK3
  Ki: 8.93 nM
Abl
  Ki: 74.1 nM
Src
  Ki: 261 nM
EPHA2
  Ki: > 1000 nM
